These are yes or no findings as the source states them, for the method shown. Some entries that bind do so weakly or less than the wild type.

The chains behind the UniProt entries cited, without tags or fusion partners. Where a name states a change or a piece, a line headed by the entry shows the natural chain unless it says otherwise. Residues count along the entry.
UniProt P02769, residues 25-607: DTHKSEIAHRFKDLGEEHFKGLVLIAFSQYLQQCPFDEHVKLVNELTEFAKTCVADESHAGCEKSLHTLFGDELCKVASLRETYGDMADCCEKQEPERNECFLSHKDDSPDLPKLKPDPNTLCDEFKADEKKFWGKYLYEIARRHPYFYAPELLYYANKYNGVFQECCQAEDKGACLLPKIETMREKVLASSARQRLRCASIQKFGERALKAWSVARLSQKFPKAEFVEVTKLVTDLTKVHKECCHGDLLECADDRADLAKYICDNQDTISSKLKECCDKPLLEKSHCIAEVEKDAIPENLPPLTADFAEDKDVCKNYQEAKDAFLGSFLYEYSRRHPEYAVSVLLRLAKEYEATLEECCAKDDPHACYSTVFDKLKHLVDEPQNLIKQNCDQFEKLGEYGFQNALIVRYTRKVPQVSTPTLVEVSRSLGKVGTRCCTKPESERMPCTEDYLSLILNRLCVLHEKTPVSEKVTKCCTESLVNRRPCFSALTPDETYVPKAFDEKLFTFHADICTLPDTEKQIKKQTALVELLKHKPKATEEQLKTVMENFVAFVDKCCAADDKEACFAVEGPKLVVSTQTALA
UniProt Q13148: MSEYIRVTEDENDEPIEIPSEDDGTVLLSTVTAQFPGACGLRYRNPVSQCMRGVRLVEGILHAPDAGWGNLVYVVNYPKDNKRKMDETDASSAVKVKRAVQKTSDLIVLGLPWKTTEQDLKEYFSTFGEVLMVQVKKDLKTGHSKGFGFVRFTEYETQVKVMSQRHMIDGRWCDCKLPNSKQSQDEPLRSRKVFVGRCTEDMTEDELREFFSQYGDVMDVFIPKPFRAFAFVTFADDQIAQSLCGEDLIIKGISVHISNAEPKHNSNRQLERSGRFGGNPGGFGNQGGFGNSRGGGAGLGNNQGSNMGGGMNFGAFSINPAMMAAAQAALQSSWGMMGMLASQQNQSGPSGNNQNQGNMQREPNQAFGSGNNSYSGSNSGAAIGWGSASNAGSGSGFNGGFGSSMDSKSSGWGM

One experiment deals with BSA (bovine) (UniProt P02769). The experiment is described as follows: ELISA on BSA as control antigen.
Substrate in experiment [1]: C terminal fragment of 25 kDa of TDP-43 (CTF25) from FTLD patient brain (human) (UniProt Q13148)
Kind of experiment: Western blot of SarkoSpin pellets of FTLD brain. A general note: Immunoblotting shows a protein as a band on a membrane.

B1: antibody 31F3 (human IgG) (antibody, V domains shown)
VH: QVQLEQSGAEVKRPGASVKVSCKASGYTFTGYYLHWVRQAPGQGLEWMGRINPGSGGTKYAQKFQGRVSMTRDTSISTAYMEVNRLRPDDTAVYYCARYQVYGERGRYMDVWGKGTTVTVSS
VL: QSALTQPASVSGSPGQSITISCTGTSSDVGTYDLVSWYQQHPGKAPKLIIYEDNKRPSGLSNRFSGSKSGNTASLTISGLQADDEADYYCCSYAAISTLIFGGGTKVTVL
Turning to B1, the binding result in the experiment with BSA (bovine) is recorded as “no binding (tested: log 3.3 ng/ml (about 2000 ng/ml))”; in experiment [1] it was “binds”.

The values are drawn from patent publication US20240150449A1.
